Laboratory results taken from publication PMC3045441.
Results are given in words; binding and its absence hold for the method and conditions named. Some binding calls cover weakened binding; strength is not graded here. Sequences can lack the tags named with a protein.

Experiments:
Test in all cases: two-hybrid; yeast, Matchmaker Two-Hybrid System 3 (Clontech), GAL4 pGBKT7 bait and pGADT7 prey vectors, full-length mouse proteins; some interactions also examined with an oxygen-biosensor assay of yeast growth in selective medium
[1] = target: T1, mitotic kinesis-like protein 1 (MKLP1), full-length mouse, yeast two-hybrid fusion (mouse) (UniProt E9Q5G3)
T1 sequence: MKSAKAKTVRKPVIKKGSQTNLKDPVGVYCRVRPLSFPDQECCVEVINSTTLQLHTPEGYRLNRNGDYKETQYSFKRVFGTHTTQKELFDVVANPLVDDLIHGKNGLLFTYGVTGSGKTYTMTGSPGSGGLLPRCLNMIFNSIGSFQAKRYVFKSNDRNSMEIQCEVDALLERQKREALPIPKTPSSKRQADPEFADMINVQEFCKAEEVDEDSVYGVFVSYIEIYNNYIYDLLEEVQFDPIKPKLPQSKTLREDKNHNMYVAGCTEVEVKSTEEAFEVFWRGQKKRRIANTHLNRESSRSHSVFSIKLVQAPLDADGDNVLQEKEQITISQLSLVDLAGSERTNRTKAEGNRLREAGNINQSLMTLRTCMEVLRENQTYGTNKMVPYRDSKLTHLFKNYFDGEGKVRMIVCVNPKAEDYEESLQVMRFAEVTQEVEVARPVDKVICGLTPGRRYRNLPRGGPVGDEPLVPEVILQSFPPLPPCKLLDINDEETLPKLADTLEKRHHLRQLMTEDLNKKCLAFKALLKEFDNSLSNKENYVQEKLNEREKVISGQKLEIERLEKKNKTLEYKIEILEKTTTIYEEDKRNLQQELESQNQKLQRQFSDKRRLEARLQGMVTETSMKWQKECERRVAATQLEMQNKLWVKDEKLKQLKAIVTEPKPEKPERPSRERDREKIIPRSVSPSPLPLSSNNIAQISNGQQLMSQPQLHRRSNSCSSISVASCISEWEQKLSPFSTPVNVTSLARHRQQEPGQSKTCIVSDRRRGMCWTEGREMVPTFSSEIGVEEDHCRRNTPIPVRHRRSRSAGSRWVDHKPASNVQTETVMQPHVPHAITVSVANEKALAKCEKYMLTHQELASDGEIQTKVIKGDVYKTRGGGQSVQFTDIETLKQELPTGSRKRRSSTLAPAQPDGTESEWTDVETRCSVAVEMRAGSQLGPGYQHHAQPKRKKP

[2] = target: T2, MgcRacGAP, full-length mouse, yeast two-hybrid fusion (mouse) (UniProt Q9WVM1)
T2 sequence: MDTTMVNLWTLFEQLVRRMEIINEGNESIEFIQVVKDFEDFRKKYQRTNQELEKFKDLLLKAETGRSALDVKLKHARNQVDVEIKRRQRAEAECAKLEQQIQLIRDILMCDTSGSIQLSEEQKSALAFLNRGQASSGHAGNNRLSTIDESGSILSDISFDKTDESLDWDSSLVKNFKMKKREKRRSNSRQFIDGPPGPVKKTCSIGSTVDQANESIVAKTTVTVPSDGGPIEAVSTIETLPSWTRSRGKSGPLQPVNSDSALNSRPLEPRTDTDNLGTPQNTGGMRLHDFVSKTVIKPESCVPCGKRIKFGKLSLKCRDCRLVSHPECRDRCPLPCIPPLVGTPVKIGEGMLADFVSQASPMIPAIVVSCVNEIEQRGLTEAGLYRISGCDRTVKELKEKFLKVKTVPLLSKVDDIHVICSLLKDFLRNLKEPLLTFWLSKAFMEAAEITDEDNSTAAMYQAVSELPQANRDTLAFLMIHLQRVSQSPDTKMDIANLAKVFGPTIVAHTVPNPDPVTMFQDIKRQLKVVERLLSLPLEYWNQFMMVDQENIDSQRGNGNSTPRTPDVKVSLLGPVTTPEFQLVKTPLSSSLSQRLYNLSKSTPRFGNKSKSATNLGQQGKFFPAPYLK

[3] = target: T3, testis-expressed gene 14 (TEX14), full-length mouse, yeast two-hybrid fusion (mouse) (UniProt Q7M6U3)
T3 sequence: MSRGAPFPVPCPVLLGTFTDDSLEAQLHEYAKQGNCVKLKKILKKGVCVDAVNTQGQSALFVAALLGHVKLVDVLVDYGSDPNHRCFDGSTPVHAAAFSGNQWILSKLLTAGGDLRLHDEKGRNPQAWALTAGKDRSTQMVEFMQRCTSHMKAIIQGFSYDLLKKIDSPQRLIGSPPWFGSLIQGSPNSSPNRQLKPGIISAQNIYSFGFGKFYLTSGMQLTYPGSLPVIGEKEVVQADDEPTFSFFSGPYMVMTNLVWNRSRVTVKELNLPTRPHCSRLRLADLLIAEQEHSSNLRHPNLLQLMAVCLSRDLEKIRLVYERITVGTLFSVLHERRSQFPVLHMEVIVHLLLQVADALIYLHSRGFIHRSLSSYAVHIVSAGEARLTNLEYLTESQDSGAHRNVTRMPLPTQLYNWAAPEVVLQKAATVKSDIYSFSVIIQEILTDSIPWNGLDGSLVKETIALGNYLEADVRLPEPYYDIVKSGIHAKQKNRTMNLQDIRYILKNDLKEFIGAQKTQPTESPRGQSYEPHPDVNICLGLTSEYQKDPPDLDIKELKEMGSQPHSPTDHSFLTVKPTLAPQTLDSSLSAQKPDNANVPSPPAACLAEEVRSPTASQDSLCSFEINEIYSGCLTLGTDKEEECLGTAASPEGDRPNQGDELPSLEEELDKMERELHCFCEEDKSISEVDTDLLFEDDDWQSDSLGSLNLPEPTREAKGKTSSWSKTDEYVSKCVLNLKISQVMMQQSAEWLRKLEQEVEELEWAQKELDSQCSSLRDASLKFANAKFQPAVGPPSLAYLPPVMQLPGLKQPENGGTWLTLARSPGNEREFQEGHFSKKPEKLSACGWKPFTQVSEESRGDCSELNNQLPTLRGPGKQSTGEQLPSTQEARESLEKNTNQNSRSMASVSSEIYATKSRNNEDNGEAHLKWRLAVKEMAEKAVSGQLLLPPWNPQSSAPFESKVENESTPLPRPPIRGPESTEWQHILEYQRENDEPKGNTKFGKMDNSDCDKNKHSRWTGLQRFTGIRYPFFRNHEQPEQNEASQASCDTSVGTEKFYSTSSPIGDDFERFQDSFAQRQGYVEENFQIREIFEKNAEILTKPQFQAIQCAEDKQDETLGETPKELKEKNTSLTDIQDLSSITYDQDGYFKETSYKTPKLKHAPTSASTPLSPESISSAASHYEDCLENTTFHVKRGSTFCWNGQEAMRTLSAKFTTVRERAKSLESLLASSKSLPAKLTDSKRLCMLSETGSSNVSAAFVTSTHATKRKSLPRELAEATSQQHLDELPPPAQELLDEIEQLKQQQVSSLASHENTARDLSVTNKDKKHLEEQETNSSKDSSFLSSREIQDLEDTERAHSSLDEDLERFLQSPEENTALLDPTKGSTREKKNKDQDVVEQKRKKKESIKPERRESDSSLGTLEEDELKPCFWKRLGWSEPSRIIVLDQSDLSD

B1: RNA binding motif protein 44 (RBM44), full-length mouse, yeast two-hybrid fusion (protein, UniProt Q3V089 1-1013)
chain: MQATAALETDSDKNYPKNGGHFQNDKLYNPKKENMFFSNGCNGVILAFPDGKEDSLATEERASDKENSIVDQRDLSELSFSENQDSNRGNIFSQSSEFEDSNDYAFLNETYSIHYSESKLKDENLLHLYSGLHPEVHKRVEMIFDTLDNNSIGLGRSAEASGADCGDVQKSDVDEDSQQEYHSAELECISAHLAKTVSRSSLDVSELKTSSYDFKCGGNFEDNHGKLESGPSPSLESLNGFAQECSLQVSTSQSSDMLQEYHEPKYEKCKEQEVDLTYHKAFDGILQRSSSPLNHQKVPETQVYTKEVKSQTTESKDFYGNRIFQNKALQRPENATMFPQDRALETHLKANDAHQPSGPCALDDSVISLCGSSQYKSLPEPGFFSPVIPRVAVTDYQAEVEGSCLHHVQGSATNKACSLMKEVCLTSVPDAAACIAAVQQTLHVSSRVNASSSIVSASSITETKMVRQSQAEEWQSDKRSVACNTAWSCGQQCRDAQRAAPGSDSGRPLSTGCLKPSGNSLNENSLELRKVFDTTDRQKHCNRAFQLCEEKAVPSRCCQKTTERAIKAEMHLLDVCYQMCHRHCHHIYKLVMESRAGLNRNLQTDSAKKELGAALLSVLEDLKLRYMNLKGKVHKGIPLEELPPLSVESKLLSAFSDFVSRLMKDEACSLSGANSELDNQSLPDVDVSPGLLKTLSQMSFIPDSSQPEQGKSPMSDVCKNGDTDIGFNCLKLNDKECKTVQEASEDWFDATERLIGADFSETQDSTAECEEWQPRNPLELKNSELHGKGQGFLIHVGGLCPSVSEADLRSHFQKYQVSEISIYDSTNYRYASLAFAKNSNAKMAVKEMNGVKINGKSVTVRLVKIPGEYTPPPLSTTGNSTSMNHLEKNTNKDATSASSICRLPRAKSRQLESEQDSEFPPLDQGVKKNCNQMKSGQLLPETPFQFIPPNTLNLRSFTKIMKRLAELHPDISRDHIIEALQEVRINHKGFLNGLSINTIVKMASSFLRNSALK
With B1 the binding [1] was “no binding”, the binding [2] was “no binding” and the binding [3] was “binds”.
